## Results from one PubChem assay

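Genome-wide siRNA knockdown in TC32 Ewing sarcoma cells, comparing luciferase light from an NR0B1-promoter reporter with a CMV-promoter reporter 48 hours after transfection.
Each siRNA was applied at 20 nM.
A z-score of the log NR0B1-over-CMV signal, less the median of siRNAs with the same seed; more negative means a stronger specific loss of the NR0B1 reporter.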

This is part of the screen; most of the strongest results are not listed here.
Sequences are the guide (antisense) strand, without overhang.

Sequence	gene	seed-corrected z-score
UGCUUGUCUAUGAAAACCU	CELF1	0.2912
UAAGGGUUGAGUGUUGCUU	ZNF726P1	0.7404
AUGAUAACCAUCUUCUCCU	CXCL14	0.3458
UAUUAGAUGGAUUAUCAGC	THAP10	0.8027
AGUAGUUACAAGUUCAUGC	C9orf57	-0.8444
CGAGCACACACCAUAACCC	UNC93B2	1.245
UUUUUCUCCGGAACCUUGG	NELFB	2.002
AUCUGUAAAGAGUUCAUUC	MLYCD	0.1057
UUGGUGAGCACGAAAUUGC	CPXM1	0.3941
UUCUAGAUUCUGGUCAUUC	ALG9	-0.9767
UUGAGGAUCCAUUAAAGGC	ZNF681	0.6357
UUUUUAGUUCGCUUAAGGG	TACC2	0.3759
UGUCUGUCCCGGGAAAUGC	ZNF503	0.3112
UUUUGAUCAAAACACUUGC	ZNF662	-1.177
AUCGGUUUCACAGGACUAC	RFX7	0.6957
AUCAUGUCCGGCUCGAUCU	NACC1	-1.009
UUUGCGCUUUCGAACAGGC	UBR4	0.28
UGGUGUUUUGGUGUUACGC	UGGT2	-0.1702
UAUGUAAUCUGGGUAUGUC	COPS7B	-1.433
UCAGAGUCAAUCAUCCAAC	ERBB2	-0.4697
UGAGAGAAGUACAUCAUCC	MLNR	-1.236
UGCUGUUACAAAGUGUUCC	TYRP1	0.7108
AACGUAAGCAGUGGAGUCC	ATF4P3	0.2423
UAACUAGUACAAUGAAUCC	TAS2R9	0.7802
AAACCUGUAUGCAUCAACU	BMS1P11	-0.8667
UGAAUUUUUACGUCUGCUG	MSX2	-0.09069
UACUCCUUCAUCGUUUUUC	MYO16	0.03925
AGAGUUACAAAUACCCUCC	LOC728573	-1.048
UGAGUUACGCCCACACUCA	KLK12	-0.6574
UUUAUGAUUAUCUAACUGU	TMEM261	0.3479
AAGGUGAUCUUGACACUGC	ZNF827	-0.456
AAACCGAUUAUACUAACAC	NDST4	-0.04318
UCUUGUACAACCUUUACGC	NPHS2	0.09619
UGCAGUAACAAAGUCCUGG	TIGD6	0.2533
UCUGACAAAAUGAAGACGG	ATP2C2	-0.2214
UUCAUGAACAGUGAGUAUC	DDIT4	0.7973
UUACAGACAAGACGAGAGC	MFAP5	-0.62
UACGUCCAUAGCGUACUGG	MDN1	-0.003609
UAUCGUUCUCCGUUCACUG	GTF3C1	-0.4439
AAACGGGAAGAAGCAAGUG	NCR3	-0.2848
AUAUCUAAUCCAGUGGUCC	LOC401554	0.856
UCUGGUAUGUGACAGUUUC	USP45	-0.6529
UCCAGAUUCGCAGCUGUCU	MEFV	-0.2229
UACAUGGAGAUCAUGGUCC	OR11L1	-0.7588
ACAGUGAACAUGUAAAACC	OR5AK2	0.6735
UGUCGGUUCUCUGCAAUGC	METTL7A	-1.456
UUACCAACAAGAAUCAUUG	RAP1B	-0.09997
AAGUCCAUCACCAGGAACC	TMC6	0.3859
UCCGGUUUGACUGCACCAG	HSF1	0.5255
UGAAGAACCAGUGUCGGCU	PFAS	-0.5962
AAGGUGGACGUGAUCUGGG	GGTLC1	-0.1082
CUCAUUGAAACCCUCACAG	CHCHD2P8	0.06275
UGUAGUCAGAGAGUCACCC	PLB1	0.2079
UAAUUCGUUGAGUAUCUUC	DIAPH2	0.5337
UCUCAUAAUAUCAAAAGCC	SMYD3	0.3168
UUCACGUACAUUAUGGAUG	ITGAE	1.081
UUGGGAGACAAUGUCUACG	AAR2	0.06117
UAAUUUUCCUGCGAGUGUC	SEC14L3	0.07971
AAGAUUCUGAGGCAAAUUG	PSG5	-1.091
AAUGUAGUCUUCCAGCUCG	RAB11FIP1	1.528
UUAAUUUCCAGGUAAAUUG	CCDC184	0.1315
UACGGUUUGCUGAACACUC	MED20	0.2998
UGCAGUGCUAGGUAGAUCA	GPAA1	0.3567

The first 4 entries again:

{"sequence": "UGCUUGUCUAUGAAAACCU", "gene": "CELF1", "seed-corrected z-score": "0.2912"}
{"sequence": "UAAGGGUUGAGUGUUGCUU", "gene": "ZNF726P1", "seed-corrected z-score": "0.7404"}
{"sequence": "AUGAUAACCAUCUUCUCCU", "gene": "CXCL14", "seed-corrected z-score": "0.3458"}
{"sequence": "UAUUAGAUGGAUUAUCAGC", "gene": "THAP10", "seed-corrected z-score": "0.8027"}

Data taken from PubChem BioAssay AID1159506, deposited by NCATS (2015).